Binding data for two substances are collected here from article doi:10.1101/689596.

The assay addresses T1, MBP-RIC-3-His6 (human) (UniProt Q7Z5B4).
T1 sequence: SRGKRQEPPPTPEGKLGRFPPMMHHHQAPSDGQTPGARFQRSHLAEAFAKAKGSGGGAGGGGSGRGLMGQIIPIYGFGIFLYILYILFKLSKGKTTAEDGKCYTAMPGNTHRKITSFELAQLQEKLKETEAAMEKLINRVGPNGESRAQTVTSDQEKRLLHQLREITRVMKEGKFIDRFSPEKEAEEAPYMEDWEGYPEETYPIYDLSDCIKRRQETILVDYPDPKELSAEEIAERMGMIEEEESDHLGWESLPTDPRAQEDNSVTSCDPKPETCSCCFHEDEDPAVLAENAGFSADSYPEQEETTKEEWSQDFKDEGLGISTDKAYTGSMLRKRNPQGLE
The experiment in a line: pull-down.

Results are given in words; binding and its absence hold for the method and conditions named. Binding calls can cover weak binding; strength is not graded here. Sequences can lack the tags named with a protein.

Turning to MBP-Δ34 (mouse) (domain or fragment), the binding result is listed as “binds”.

With MBP-Δ55 (mouse) (domain or fragment), the binding result is reported as “binds”.
